Measured values taken from the supplement of paper PMC10849652.
The other results are listed elsewhere or left out.

Chains of the proteins cited; added tags and fusions are not shown. Lines headed by an entry give the natural chain unless they say otherwise; changes in a name come on top.
UniProt P32856: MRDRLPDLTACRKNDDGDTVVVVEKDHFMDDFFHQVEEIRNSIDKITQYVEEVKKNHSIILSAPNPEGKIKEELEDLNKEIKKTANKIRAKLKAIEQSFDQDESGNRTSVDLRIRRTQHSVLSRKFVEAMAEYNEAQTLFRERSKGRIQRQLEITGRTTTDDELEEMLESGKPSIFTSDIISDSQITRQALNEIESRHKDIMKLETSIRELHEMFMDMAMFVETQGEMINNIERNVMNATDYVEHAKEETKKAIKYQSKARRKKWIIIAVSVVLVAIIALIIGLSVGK
UniProt O00268, whole entry, looked up: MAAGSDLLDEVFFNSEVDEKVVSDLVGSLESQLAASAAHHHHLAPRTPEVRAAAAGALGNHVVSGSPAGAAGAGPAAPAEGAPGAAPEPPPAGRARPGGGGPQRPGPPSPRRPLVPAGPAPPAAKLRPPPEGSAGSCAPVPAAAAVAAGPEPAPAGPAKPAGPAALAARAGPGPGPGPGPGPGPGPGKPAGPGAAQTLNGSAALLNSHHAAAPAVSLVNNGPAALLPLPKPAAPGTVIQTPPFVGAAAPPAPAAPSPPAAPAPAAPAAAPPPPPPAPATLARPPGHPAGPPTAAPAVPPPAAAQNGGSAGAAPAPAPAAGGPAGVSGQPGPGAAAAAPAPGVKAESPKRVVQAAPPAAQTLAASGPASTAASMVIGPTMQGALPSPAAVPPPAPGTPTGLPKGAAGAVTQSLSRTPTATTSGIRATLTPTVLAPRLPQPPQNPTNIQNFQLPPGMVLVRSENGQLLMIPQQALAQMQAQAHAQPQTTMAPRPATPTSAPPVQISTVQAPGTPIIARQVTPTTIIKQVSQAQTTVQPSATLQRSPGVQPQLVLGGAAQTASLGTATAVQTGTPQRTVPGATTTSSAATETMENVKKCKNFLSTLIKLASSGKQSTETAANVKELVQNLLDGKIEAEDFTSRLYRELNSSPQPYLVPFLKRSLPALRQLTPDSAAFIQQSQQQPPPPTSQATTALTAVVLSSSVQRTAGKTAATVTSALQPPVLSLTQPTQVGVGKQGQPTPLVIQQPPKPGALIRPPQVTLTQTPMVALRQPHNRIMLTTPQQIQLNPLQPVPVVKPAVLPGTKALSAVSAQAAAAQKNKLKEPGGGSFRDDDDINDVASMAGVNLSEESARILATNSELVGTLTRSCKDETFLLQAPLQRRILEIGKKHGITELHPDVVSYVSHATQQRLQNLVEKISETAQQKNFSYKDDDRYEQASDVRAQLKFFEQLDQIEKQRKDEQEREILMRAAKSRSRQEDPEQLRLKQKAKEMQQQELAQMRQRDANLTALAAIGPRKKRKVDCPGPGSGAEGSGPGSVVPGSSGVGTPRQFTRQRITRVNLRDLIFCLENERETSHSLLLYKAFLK
UniProt O43761: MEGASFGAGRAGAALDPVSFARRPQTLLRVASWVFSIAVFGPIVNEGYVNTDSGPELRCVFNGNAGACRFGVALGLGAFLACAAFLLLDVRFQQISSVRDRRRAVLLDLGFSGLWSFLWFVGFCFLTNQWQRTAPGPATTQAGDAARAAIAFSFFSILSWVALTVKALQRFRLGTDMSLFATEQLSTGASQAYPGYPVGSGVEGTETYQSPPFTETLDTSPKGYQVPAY

Assays:
Assay in all cases: log2 fold change, soluble protein after heating vs DMSO (PISA); higher = thermal stabilisation; K562 lysate, 10 uM; active = over 0.2 and 3.5 SD of the protein, either way, in both replicates (recomputed)
erlotinib = compound: C#Cc1cccc(Nc2ncnc3cc(OCCOC)c(OCCOC)cc23)c1 [erlotinib]
Procedure, shortened: (§1)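 K562 pellets were dounce-homogenised in PBS pH 7.4 containing 1 mM MgCl2, and the crude extract, at 1 mg/mL protein, was exposed to 10 μM compound for 30 min. Aliquots were heated for 3 min across 48°C-58°C, pooled, brought to 0.5% NP-40 at 4°C and spun at 21,000xg for 90 min, with the supernatant taken as soluble protein. TMTpro 16plex LC-MS/MS with equalised channel sums quantified that protein. Values are log-two fold changes in thermal stability relative to solvent controls, taken from duplicates.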

[1] = compound: C/C(=N\NC(=O)C1=CC(=CC=C1)S(=O)(=O)N2CCOCC2)/C3=C(C=CC(=C3)Cl)O
Procedure, shortened: as §1

[2] = compound: C1=CC(=CC=C1C2=NC3=C(N2)C=C(C=C3)C(=O)N)OC4=CC=C(C=C4)Cl
Procedure, shortened: as §1

[3] = compound: C1=CC2=C(C=CC(=C2)/C=C\3/C(=O)NC(=NCC4=CC=CS4)S3)N=C1
Procedure, shortened: as §1

[4] = compound: C1=CC2=NC=CN=C2C=C1/C=C/3\C(=O)NC(=O)S3
Procedure, shortened: as §1

[5] = compound: C1=CC=C(C=C1)C2=NC(=C(N2)C3=CC=NC=C3)C4=CC(=C(C=C4)Cl)O
Procedure, shortened: as §1

[6] = compound: C1=CC=C(C=C1)[C@H](COC2=CC3=C(C=C2)NC(=O)N3)NC(=O)C4=CC=CN(C4=O)CC5=CC(=C(C=C5)F)F
Procedure, shortened: as §1

[7] = compound: C1=CC=C2C(=C1)C3=NNC4=CC=CC(=C43)C2=O
Procedure, shortened: as §1

[8] = compound: C1CCN(C1)C(=O)NC2=CC=CC(=C2)NC3=NC=C(C(=N3)NCCC4=CN=CN4)Br
Procedure, shortened: as §1

[9] = compound: C1CN(CCC1(CC2=CC=C(C=C2)Cl)N)C3=NC=NC4=C3C=CN4
Procedure, shortened: as §1

IRAK-1-4 Inhibitor I = compound: C1COCCN1CCN2C3=CC=CC=C3N=C2NC(=O)C4=CC(=CC=C4)[N+](=O)[O-] [IRAK-1-4 Inhibitor I]
Procedure, shortened: as §1

ibrutinib = compound: C=CC(=O)N1CCC[C@@H](n2nc(-c3ccc(Oc4ccccc4)cc3)c3c(N)ncnc32)C1 [ibrutinib]
Procedure, shortened: as §1

[10] = compound: CC(=O)c1cnc2ccc(-c3cc(Cl)c(O)c(Cl)c3)nc2c1N[C@H]1CC[C@H](CN(C)C)CC1
Procedure, shortened: as §1

ralimetinib = compound: CC(C)(C)Cn1c(N)nc2ccc(-c3[nH]c(C(C)(C)C)nc3-c3ccc(F)cc3)nc21 [ralimetinib]
Procedure, shortened: as §1

[11] = compound: CC(C)(O)CC(=O)NCCn1ccc2ncnc(Nc3ccc(Oc4cccc(C(F)(F)F)c4)c(Cl)c3)c21
Procedure, shortened: as §1

[12] = compound: CC(C)C1=C2N=C(C=C(N2N=C1)NCC3=CC=CC=C3)NCCCCCCN
Procedure, shortened: as §1

[13] = compound: CC1=C(C(CC(=O)N1)C2=CC=C(C=C2)C(F)(F)F)C(=O)NC3=C(C=C4C(=C3)C=NN4)F
Procedure, shortened: as §1

[14] = compound: CC1=C(C2=C(C=C1)C(=O)C3=CC=CC=C3N2CCCN)C
Procedure, shortened: as §1

[15] = compound: CC1=C(C=C(C=C1)NC(=O)C2=CC(=CC=C2)C(C)(C)C#N)NC3=CC4=C(C=C3)N=CN(C4=O)C
Procedure, shortened: as §1

[16] = compound: CC1=C(C=C(C=C1)NC(=O)C2=CC(=CC=C2)N(C)C)NC(=O)C3=CC=C(C=C3)O
Procedure, shortened: as §1

[17] = compound: CC1=C(SC2=C1C(=N[C@H](C3=NN=C(N32)C)CC(=O)N)C4=CC=C(C=C4)Cl)C
Procedure, shortened: as §1

[18] = compound: CC1=C2C(=CC=C1)N=C(N(C2=O)C3=CC=CC=C3C)CN4C=NC5=C(N=CN=C54)N
Procedure, shortened: as §1

[19] = compound: CC1=CC=C(C=C1)SC2=C3C=C(SC3=CN=C2)C(=O)N
Procedure, shortened: as §1

vemurafenib = compound: CCCS(=O)(=O)Nc1ccc(F)c(C(=O)c2c[nH]c3ncc(-c4ccc(Cl)cc4)cc23)c1F [vemurafenib]
Procedure, shortened: as §1

[20] = compound: CCCS(=O)(=O)Nc1ccc(F)c(C(=O)c2c[nH]c3ncc(Cl)cc23)c1F
Procedure, shortened: as §1

barasertib = compound: CCN(CCCOc1ccc2c(Nc3cc(CC(=O)Nc4cccc(F)c4)[nH]n3)ncnc2c1)CCOP(=O)(O)O [barasertib]
Procedure, shortened: as §1

[21] = compound: CC[C@@H]1C(=O)N(C)c2cnc(Nc3ccc(C(=O)NC4CCN(C)CC4)cc3OC)nc2N1C1CCCC1
Procedure, shortened: as §1

volasertib = compound: CC[C@@H]1C(=O)N(C)c2cnc(Nc3ccc(C(=O)N[C@H]4CC[C@H](N5CCN(CC6CC6)CC5)CC4)cc3OC)nc2N1C(C)C [volasertib]
Procedure, shortened: as §1

[22] = compound: CCn1c(C(=O)N(C2CC2)C2CC2)cc2c3c(ncn3C)c(Nc3cc(C)n(C)n3)nc21
Procedure, shortened: as §1

[23] = compound: CCn1cc(-c2ccnc3[nH]c(-c4cccc(CN(C)C)c4)cc23)c(-c2ccc(NC(=O)N(C)C)cc2)n1
Procedure, shortened: as §1

[24] = compound: CN1CCC(CNc2ccc3ncc(-c4cccc(OC(F)(F)F)c4)n3n2)CC1
Procedure, shortened: as §1

saracatinib = compound: CN1CCN(CCOc2cc(OC3CCOCC3)c3c(Nc4c(Cl)ccc5c4OCO5)ncnc3c2)CC1 [saracatinib]
Procedure, shortened: as §1

sotrastaurin = compound: CN1CCN(c2nc(C3=C(c4c[nH]c5ccccc45)C(=O)NC3=O)c3ccccc3n2)CC1 [sotrastaurin]
Procedure, shortened: as §1

alvocidib = compound: CN1CC[C@H](c2c(O)cc(O)c3c(=O)cc(-c4ccccc4Cl)oc23)[C@H](O)C1 [alvocidib]
Procedure, shortened: as §1

Tubastatin A = compound: CN1CCc2c(c3ccccc3n2Cc2ccc(C(=O)NO)cc2)C1 [Tubastatin A]
Procedure, shortened: as §1

[25] = compound: CNC(=O)C1=CC=CC=C1NC2=NC(=NC=C2Cl)NC3=C(C=C(C=C3)N4CCOCC4)OC
Procedure, shortened: as §1

defactinib = compound: CNC(=O)c1ccc(Nc2ncc(C(F)(F)F)c(NCc3nccnc3N(C)S(C)(=O)=O)n2)cc1 [defactinib]
Procedure, shortened: as §1

[26] = compound: CNc1nc(-c2ccc3c(N)n[nH]c3c2)cc(N2C[C@@H](C(=O)NC3CCCCC3)CC[C@H]2C)n1
Procedure, shortened: as §1

encorafenib = compound: COC(=O)N[C@@H](C)CNc1nccc(-c2cn(C(C)C)nc2-c2cc(Cl)cc(NS(C)(=O)=O)c2F)n1 [encorafenib]
Procedure, shortened: as §1

[27] = compound: COC(=O)[C@H](CCSC)NC(=O)C1=C(C=C(C=C1)NC[C@H](CS)N)C2=CC=CC=C2
Procedure, shortened: as §1

alisertib = compound: COc1cc(Nc2ncc3c(n2)-c2ccc(Cl)cc2C(c2c(F)cccc2OC)=NC3)ccc1C(=O)O [alisertib]
Procedure, shortened: as §1

[28] = compound: COc1cc2nc(-c3cc(F)ccc3O)nc(N[C@@H]3CNC[C@H]3C(C)(C)O)c2cc1OC
Procedure, shortened: as §1

gefitinib = compound: COc1cc2ncnc(Nc3ccc(F)c(Cl)c3)c2cc1OCCCN1CCOCC1 [gefitinib]
Procedure, shortened: as §1

lapatinib = compound: CS(=O)(=O)CCNCc1ccc(-c2ccc3ncnc(Nc4ccc(OCc5cccc(F)c5)c(Cl)c4)c3c2)o1 [lapatinib]
Procedure, shortened: as §1

pictilisib = compound: CS(=O)(=O)N1CCN(Cc2cc3nc(-c4cccc5[nH]ncc45)nc(N4CCOCC4)c3s2)CC1 [pictilisib]
Procedure, shortened: as §1

crizotinib = compound: C[C@@H](Oc1cc(-c2cnn(C3CCNCC3)c2)cnc1N)c1c(Cl)ccc(F)c1Cl [crizotinib]
Procedure, shortened: as §1

[29] = compound: C[C@H](C1=CC=C(C=C1)C(=O)NC2=C3C=CNC3=NC=C2)N
Procedure, shortened: as §1

duvelisib = compound: C[C@H](Nc1ncnc2nc[nH]c12)c1cc2cccc(Cl)c2c(=O)n1-c1ccccc1 [duvelisib]
Procedure, shortened: as §1

gandotinib = compound: Cc1cc(Nc2cc(CN3CCOCC3)c3nc(C)c(Cc4ccc(Cl)cc4F)n3n2)n[nH]1 [gandotinib]
Procedure, shortened: as §1

tozasertib = compound: Cc1cc(Nc2cc(N3CCN(C)CC3)nc(Sc3ccc(NC(=O)C4CC4)cc3)n2)n[nH]1 [tozasertib]
Procedure, shortened: as §1

doramapimod = compound: Cc1ccc(-n2nc(C(C)(C)C)cc2NC(=O)Nc2ccc(OCCN3CCOCC3)c3ccccc23)cc1 [doramapimod]
Procedure, shortened: as §1

bafetinib = compound: Cc1ccc(NC(=O)c2ccc(CN3CC[C@H](N(C)C)C3)c(C(F)(F)F)c2)cc1Nc1nccc(-c2cncnc2)n1 [bafetinib]
Procedure, shortened: as §1

[30] = compound: Cc1cccc(CC(=O)N2CCc3c2ccc(-c2cn(C)c4ncnc(N)c24)c3F)n1
Procedure, shortened: as §1

nilotinib = compound: Cc1cn(-c2cc(NC(=O)c3ccc(C)c(Nc4nccc(-c5cccnc5)n4)c3)cc(C(F)(F)F)c2)cn1 [nilotinib]
Procedure, shortened: as §1

[31] = compound: Cc1nc(Nc2n[nH]c3c2CN(C(=O)N[C@H](CN(C)C)c2ccccc2)C3(C)C)c2sccc2n1
Procedure, shortened: as §1

dasatinib = compound: Cc1nc(Nc2ncc(C(=O)Nc3c(C)cccc3Cl)s2)cc(N2CCN(CCO)CC2)n1 [dasatinib]
Procedure, shortened: as §1

[32] = compound: Cc1ncc(-c2ccnc(Nc3ccc(S(C)(=O)=O)cc3)n2)n1C(C)C
Procedure, shortened: as §1

[33] = compound: Cc1sc2c(c1C)C(c1ccc(Cl)cc1)=N[C@@H](CC(=O)OC(C)(C)C)c1nnc(C)n1-2
Procedure, shortened: as §1

[34] = compound: Cn1cc(-c2ccc3c(c2)CCN3C(=O)Cc2cccc(C(F)(F)F)c2)c2c(N)ncnc21
Procedure, shortened: as §1

quisinostat = compound: Cn1cc(CNCC2CCN(c3ncc(C(=O)NO)cn3)CC2)c2ccccc21 [quisinostat]
Procedure, shortened: as §1

tipifarnib = compound: Cn1cncc1[C@@](N)(c1ccc(Cl)cc1)c1ccc2c(c1)c(-c1cccc(Cl)c1)cc(=O)n2C [tipifarnib]
Procedure, shortened: as §1

[35] = compound: NC(=O)Nc1cc(-c2cccc(F)c2)sc1C(=O)N[C@H]1CCCNC1
Procedure, shortened: as §1

[36] = compound: NC(=O)c1cnc(N[C@@H]2CCCC[C@@H]2N)nc1Nc1cccc(-n2nccn2)c1
Procedure, shortened: as §1

[37] = compound: NC1(c2ccc(-c3nc4ccn5c(=O)[nH]nc5c4cc3-c3ccccc3)cc2)CCC1
Procedure, shortened: as §1

[38] = compound: NCC(=O)Nc1ccc(-n2nc(C(F)(F)F)cc2-c2ccc3c(ccc4ccccc43)c2)cc1
Procedure, shortened: as §1

vorinostat = compound: O=C(CCCCCCC(=O)Nc1ccccc1)NO [vorinostat]
Procedure, shortened: as §1

silmitasertib = compound: O=C(O)c1ccc2c(c1)nc(Nc1cccc(Cl)c1)c1ccncc12 [silmitasertib]
Procedure, shortened: as §1

[39] = compound: O=C1NC(=O)C(c2cnc3ccccn23)=C1c1cn2c3c(cc(F)cc13)CN(C(=O)N1CCCCC1)CC2
Procedure, shortened: as §1

[40] = compound: c1ccc([C@@H]2C[C@H]2NC2CCNCC2)cc1
Procedure, shortened: as §1

entospletinib = compound: c1cn2cc(-c3ccc4cn[nH]c4c3)nc(Nc3ccc(N4CCOCC4)cc3)c2n1 [entospletinib]
Procedure, shortened: as §1

Measured: log2 fold change

STX2 (UniProt P32856)
inactive: erlotinib -0.077 | [1] 0.032 | [2] 0.045 | [3] 0.044 | [4] 0.011 | [5] 0.001 | [6] 0.062 | [7] -0.028 | [8] -0.002 | [9] 0.024 | IRAK-1-4 Inhibitor I -0.01 | ibrutinib 0.034 | [10] -0.007 | ralimetinib 0.026 | [11] -0.006 | [12] -0.071 | [13] 0.061 | [14] 0.023 | [15] -0.014 | [16] 0.003 | [17] 0.028 | [18] 0.006 | [19] -0.039 | vemurafenib 0.01 | [20] 0.004 | barasertib -0.014 | [21] 0.201 | volasertib -0.004 | [22] 0.02 | [23] 0.045 | [24] -0.024 | saracatinib 0.087 | sotrastaurin 0.039 | alvocidib -0.017 | Tubastatin A 0.042 | [25] 0.095 | defactinib -0.004 | [26] -0.166 | encorafenib -0.007 | [27] 0.004 | alisertib -0.02 | [28] 0 | gefitinib -0.023 | lapatinib -0.01 | pictilisib -0.032 | crizotinib -0.01 | [29] 0.011 | duvelisib 0.172 | gandotinib 0 | tozasertib 0.01 | doramapimod 0.008 | bafetinib -0.013 | [30] -0.006 | nilotinib -0.056 | [31] 0.022 | dasatinib -0.093 | [32] 0.068 | [33] -0.063 | [34] 0.119 | quisinostat -0.018 | tipifarnib 0.04 | [35] 0.001 | [36] -0.005 | [37] 0.016 | [38] -0.008 | vorinostat -0.12 | silmitasertib 0.015 | [39] -0.023 | [40] -0.026 | entospletinib -0.101

SUPT5H isoform 2 (UniProt O00267)
inactive: [6] -0.225 | [17] 0.023 | [18] 0.073 | [33] -0.065

TAF4 (UniProt O00268)
inactive: [6] -0.052 | [17] 0.028 | [18] 0.003 | [33] -0.024

SYNGR3 (UniProt O43761)
inactive: [6] 0.077 | [17] -0.04
